{
  "sequences": {"note": "Amino acid sequences for entries named in this document (tags omitted). A change or cut given only in a name is not applied to a line headed by its entry.", "UniProt P10121": "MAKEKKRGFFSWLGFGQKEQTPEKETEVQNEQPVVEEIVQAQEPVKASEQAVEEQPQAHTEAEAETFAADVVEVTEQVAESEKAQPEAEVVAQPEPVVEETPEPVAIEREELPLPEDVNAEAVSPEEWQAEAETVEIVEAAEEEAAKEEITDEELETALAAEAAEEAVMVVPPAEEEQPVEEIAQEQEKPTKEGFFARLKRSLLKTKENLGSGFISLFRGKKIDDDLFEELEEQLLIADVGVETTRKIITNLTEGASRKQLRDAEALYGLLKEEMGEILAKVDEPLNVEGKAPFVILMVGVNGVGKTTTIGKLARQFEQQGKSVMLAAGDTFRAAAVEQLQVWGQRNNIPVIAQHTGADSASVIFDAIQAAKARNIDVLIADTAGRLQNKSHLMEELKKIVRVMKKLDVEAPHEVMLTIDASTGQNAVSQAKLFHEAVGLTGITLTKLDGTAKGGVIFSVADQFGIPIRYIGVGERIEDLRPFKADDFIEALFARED", "UniProt P18775": "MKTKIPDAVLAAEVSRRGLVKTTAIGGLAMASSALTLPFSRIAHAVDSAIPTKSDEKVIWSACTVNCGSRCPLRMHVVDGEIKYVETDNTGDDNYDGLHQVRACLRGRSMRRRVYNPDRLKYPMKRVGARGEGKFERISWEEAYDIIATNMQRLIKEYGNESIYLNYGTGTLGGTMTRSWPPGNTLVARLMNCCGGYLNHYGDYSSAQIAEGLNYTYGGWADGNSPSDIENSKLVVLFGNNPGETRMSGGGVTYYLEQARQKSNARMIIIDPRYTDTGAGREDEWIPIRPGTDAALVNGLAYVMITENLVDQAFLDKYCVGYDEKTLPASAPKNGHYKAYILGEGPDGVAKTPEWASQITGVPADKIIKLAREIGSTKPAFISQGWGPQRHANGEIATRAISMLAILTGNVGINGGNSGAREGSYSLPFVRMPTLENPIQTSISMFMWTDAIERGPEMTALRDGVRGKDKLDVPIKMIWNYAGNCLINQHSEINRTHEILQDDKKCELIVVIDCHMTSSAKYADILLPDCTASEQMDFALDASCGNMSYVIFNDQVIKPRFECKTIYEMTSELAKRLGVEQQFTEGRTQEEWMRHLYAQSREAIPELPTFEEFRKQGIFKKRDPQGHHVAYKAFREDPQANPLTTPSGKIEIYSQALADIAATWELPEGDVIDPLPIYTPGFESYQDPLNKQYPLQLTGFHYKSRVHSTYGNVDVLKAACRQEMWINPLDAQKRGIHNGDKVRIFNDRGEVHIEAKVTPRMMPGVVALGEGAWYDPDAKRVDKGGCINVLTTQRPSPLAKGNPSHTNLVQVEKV", "UniProt P23883": "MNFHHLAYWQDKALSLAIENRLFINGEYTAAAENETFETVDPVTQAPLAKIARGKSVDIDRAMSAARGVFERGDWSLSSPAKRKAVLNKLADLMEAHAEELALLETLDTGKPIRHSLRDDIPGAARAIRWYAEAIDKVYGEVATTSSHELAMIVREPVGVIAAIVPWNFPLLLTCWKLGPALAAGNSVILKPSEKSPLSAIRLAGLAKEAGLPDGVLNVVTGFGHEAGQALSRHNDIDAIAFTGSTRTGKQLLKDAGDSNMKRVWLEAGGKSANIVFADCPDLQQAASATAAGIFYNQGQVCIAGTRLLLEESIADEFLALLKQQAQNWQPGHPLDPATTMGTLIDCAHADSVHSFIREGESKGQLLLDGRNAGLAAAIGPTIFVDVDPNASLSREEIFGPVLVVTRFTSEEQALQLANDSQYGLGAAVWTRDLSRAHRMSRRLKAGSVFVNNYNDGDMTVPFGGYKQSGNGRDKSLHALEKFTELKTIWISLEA", "UniProt P23524": "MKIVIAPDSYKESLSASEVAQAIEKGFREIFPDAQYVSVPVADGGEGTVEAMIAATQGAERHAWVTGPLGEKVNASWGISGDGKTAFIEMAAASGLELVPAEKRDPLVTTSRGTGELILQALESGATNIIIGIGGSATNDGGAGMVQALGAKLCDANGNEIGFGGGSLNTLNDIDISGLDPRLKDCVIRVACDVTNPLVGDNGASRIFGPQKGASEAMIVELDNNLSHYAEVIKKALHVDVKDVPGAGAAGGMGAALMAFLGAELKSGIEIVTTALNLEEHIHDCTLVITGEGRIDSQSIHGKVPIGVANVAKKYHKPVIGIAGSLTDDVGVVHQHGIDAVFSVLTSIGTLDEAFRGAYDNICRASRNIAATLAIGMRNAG", "UniProt P10908": "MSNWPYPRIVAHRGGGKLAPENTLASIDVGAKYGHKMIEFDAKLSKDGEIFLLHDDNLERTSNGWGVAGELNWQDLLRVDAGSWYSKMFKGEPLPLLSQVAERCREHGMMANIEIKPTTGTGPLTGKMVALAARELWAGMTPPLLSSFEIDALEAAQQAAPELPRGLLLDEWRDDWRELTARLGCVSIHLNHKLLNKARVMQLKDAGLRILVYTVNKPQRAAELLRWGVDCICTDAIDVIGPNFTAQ", "UniProt P21151": "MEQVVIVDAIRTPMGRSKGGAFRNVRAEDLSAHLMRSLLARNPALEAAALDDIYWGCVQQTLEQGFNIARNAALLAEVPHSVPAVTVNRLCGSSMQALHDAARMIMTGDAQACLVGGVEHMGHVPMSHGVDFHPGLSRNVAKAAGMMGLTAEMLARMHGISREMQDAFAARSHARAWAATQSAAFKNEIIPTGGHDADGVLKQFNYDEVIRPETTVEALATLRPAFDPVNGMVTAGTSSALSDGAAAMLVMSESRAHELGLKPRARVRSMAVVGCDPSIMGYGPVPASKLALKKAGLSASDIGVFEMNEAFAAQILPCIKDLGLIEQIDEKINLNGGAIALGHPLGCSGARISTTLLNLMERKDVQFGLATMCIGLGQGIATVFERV", "UniProt P15640": "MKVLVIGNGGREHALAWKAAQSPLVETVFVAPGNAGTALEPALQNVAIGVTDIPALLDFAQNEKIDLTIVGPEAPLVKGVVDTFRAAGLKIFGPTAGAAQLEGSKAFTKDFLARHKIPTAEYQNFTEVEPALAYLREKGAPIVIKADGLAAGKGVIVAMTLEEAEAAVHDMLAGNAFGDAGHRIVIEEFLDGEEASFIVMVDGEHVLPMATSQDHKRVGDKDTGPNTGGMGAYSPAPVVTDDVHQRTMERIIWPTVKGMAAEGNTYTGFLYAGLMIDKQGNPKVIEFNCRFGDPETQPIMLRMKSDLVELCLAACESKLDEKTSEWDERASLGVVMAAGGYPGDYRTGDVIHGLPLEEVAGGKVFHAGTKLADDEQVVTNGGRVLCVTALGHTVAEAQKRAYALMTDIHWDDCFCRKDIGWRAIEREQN", "UniProt P23840": "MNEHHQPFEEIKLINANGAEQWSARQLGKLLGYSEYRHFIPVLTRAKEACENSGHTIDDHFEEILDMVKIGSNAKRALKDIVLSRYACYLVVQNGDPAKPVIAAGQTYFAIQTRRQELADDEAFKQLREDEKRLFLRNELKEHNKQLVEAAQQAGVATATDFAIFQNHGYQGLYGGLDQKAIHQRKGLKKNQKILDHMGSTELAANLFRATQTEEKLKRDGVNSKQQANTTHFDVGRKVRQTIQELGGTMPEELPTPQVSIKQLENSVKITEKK", "UniProt P16528": "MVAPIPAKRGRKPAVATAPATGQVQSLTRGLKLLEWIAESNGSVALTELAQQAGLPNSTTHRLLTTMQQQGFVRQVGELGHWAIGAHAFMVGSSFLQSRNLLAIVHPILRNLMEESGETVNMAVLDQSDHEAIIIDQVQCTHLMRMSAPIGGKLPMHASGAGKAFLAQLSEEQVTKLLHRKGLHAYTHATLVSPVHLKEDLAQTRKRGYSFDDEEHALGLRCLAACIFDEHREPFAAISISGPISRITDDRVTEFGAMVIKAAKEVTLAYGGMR", "UniProt P20966": "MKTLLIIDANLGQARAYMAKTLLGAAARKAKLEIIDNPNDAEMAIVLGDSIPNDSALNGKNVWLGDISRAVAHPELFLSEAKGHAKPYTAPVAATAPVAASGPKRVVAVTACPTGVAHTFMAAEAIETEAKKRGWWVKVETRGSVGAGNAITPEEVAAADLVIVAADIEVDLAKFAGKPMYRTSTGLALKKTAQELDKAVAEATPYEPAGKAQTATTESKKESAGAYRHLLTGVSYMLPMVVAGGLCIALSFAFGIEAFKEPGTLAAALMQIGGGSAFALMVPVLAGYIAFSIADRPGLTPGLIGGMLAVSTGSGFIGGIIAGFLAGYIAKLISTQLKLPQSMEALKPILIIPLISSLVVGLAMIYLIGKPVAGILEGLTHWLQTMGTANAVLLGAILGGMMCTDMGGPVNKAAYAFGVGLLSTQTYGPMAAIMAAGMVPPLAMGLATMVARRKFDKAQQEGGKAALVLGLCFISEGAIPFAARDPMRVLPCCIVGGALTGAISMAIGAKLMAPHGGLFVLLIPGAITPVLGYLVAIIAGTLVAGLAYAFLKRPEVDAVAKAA", "UniProt P0CF79": "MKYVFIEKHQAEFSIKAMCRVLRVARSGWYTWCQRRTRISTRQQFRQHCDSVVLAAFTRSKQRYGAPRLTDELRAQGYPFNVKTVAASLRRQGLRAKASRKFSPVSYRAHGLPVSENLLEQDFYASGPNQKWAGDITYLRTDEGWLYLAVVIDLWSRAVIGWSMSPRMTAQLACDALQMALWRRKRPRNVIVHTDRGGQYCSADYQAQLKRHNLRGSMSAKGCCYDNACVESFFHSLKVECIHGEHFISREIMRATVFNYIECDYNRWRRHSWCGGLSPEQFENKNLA", "UniProt P22106": "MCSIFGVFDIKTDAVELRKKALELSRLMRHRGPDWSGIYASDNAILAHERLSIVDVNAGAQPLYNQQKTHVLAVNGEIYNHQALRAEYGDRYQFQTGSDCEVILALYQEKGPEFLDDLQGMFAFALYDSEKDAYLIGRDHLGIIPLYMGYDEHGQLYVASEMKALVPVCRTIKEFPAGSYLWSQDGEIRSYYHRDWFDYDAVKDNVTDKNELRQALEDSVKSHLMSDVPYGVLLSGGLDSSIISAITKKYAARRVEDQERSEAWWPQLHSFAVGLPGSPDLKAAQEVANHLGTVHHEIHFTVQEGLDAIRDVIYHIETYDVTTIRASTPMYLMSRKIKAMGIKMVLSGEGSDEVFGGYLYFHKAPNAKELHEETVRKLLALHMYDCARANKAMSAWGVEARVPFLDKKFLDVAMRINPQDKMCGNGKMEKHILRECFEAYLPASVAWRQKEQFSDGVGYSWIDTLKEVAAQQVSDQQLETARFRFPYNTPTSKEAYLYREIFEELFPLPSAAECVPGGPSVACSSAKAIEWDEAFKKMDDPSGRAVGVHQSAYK", "UniProt P12282": "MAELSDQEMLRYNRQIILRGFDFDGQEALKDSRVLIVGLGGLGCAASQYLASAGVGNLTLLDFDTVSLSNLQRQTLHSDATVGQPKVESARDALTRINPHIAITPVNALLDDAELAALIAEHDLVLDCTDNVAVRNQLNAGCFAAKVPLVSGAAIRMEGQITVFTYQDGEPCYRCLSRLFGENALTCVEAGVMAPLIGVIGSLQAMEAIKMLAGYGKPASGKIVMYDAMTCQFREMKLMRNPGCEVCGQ", "UniProt P17888": "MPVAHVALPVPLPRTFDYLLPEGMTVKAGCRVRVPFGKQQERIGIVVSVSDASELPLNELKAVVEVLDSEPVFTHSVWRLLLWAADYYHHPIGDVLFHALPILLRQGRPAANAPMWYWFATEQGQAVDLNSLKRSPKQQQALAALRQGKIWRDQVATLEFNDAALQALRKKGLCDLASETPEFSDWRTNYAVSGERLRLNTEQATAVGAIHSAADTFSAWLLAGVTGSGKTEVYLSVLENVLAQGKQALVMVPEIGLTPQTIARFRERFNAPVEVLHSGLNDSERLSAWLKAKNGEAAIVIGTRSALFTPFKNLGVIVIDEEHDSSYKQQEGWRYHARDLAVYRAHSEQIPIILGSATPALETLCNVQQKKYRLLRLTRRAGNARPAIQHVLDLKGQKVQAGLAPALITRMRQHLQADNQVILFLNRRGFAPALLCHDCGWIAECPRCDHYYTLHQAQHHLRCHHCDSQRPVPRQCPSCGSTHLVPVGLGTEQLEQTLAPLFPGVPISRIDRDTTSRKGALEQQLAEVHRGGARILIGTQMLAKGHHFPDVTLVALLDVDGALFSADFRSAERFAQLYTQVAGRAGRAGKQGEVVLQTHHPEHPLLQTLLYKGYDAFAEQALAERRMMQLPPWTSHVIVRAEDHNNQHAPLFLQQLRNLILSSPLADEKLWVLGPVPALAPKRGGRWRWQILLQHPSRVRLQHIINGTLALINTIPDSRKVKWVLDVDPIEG", "UniProt P12281": "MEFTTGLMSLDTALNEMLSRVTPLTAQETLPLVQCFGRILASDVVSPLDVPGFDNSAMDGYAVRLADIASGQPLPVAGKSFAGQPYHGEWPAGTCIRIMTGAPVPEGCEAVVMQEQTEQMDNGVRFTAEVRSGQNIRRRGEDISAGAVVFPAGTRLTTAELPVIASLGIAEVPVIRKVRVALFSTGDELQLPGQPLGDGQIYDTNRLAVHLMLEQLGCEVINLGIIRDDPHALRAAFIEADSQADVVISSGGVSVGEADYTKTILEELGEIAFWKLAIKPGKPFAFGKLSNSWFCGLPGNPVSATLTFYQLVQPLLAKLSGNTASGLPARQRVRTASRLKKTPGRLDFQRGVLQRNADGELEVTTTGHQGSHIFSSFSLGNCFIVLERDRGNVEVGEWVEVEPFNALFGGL"},
  "source": "the supplement of paper PMC12819154",
  "about": "“High-throughput peptide-centric local stability assay extends protein–ligand identification to membrane proteins, tissues and bacteria” (Nature Structural & Molecular Biology, 2025)",
  "note": "The other results are listed elsewhere or left out. Small differences around the control level are noise.",
  "data": [
    {"compound": "CC1(C)S[C@@H]2[C@H](NC(=O)[C@H](N)c3ccccc3)C(=O)N2[C@H]1C(=O)O [ampicillin]", "assay": "log2 fold change of tryptic peptide abundance, ligand vs vehicle (limited proteolysis) (log2 ratio); higher = more trypsin-susceptible (destabilized)", "conditions": "ligand concentration: 10 uM; sample: E. coli crude lysate", "values": [
      {"target": "UniProt P10121 (peptide sequence: GFFSWLGFGQK, peptide start residue: 8)", "log2 fold change": -0.5},
      {"target": "UniProt P18775 (peptide sequence: TIYEMTSELAKR, peptide start residue: 565)", "log2 fold change": -0.228},
      {"target": "UniProt P0CF40 (peptide sequence: KWIAHAPLLPGDGE, peptide start residue: 108)", "log2 fold change": 0.291},
      {"target": "UniProt P23883 (peptide sequence: DAGDSNMKR, peptide start residue: 255)", "log2 fold change": 0.488},
      {"target": "UniProt P23886 (peptide sequence: STLLQQLTR, peptide start residue: 380)", "log2 fold change": -0.36},
      {"target": "UniProt P23524 (peptide sequence: DPLVTTSR, peptide start residue: 105)", "log2 fold change": 0.158},
      {"target": "UniProt P10908 (peptide sequence: CREHGMMANIEIKPTTGTGPLTGK, peptide start residue: 104)", "log2 fold change": 0.285},
      {"target": "UniProt P21151 (peptide sequence: INLNGGAIALGHPLGCSGAR, peptide start residue: 332)", "log2 fold change": 0.254},
      {"target": "UniProt P16525 (peptide sequence: TTFEHIVTVESELPTAAR, peptide start residue: 122)", "log2 fold change": 0.186},
      {"target": "UniProt P15640 (peptide sequence: VIEFNCR, peptide start residue: 284)", "log2 fold change": -0.338},
      {"target": "UniProt P23840 (peptide sequence: ILDHMGSTELAANLFR, peptide start residue: 194)", "log2 fold change": -0.144},
      {"target": "UniProt P16528 (peptide sequence: GYSFDDEEHALGLR, peptide start residue: 208)", "log2 fold change": -0.429},
      {"target": "UniProt P20966 (peptide sequence: AQTATTESK, peptide start residue: 212)", "log2 fold change": 0.346},
      {"target": "UniProt P0CF79 (peptide sequence: HNLRGSMSAK, peptide start residue: 212)", "log2 fold change": 0.448},
      {"target": "UniProt P22106 (peptide sequence: FRFPYNTPTSK, peptide start residue: 483)", "log2 fold change": 0.0935},
      {"target": "UniProt P12282 (peptide sequence: VESARDALTR, peptide start residue: 87)", "log2 fold change": 0.139},
      {"target": "UniProt P13458 (peptide sequence: ARNQPDGNLQVPR, peptide start residue: 101)", "log2 fold change": -0.421},
      {"target": "UniProt P24173 (peptide sequence: ELIGLLADSGIR, peptide start residue: 201)", "log2 fold change": 0.227},
      {"target": "UniProt P17888 (peptide sequence: FNAPVEVLHSGLNDSER, peptide start residue: 269)", "log2 fold change": 0.297},
      {"target": "UniProt P23898 (peptide sequence: SSLDNVYWQK, peptide start residue: 137)", "log2 fold change": 0.236},
      {"target": "UniProt P23862 (peptide sequence: LEGQLATLR, peptide start residue: 10)", "log2 fold change": 0.159},
      {"target": "UniProt P12281 (peptide sequence: RGEDISAGAVVFPAGTR, peptide start residue: 139)", "log2 fold change": -0.292},
      {"target": "UniProt P21189 (peptide sequence: YAGLIQEGDK, peptide start residue: 617)", "log2 fold change": 0.323}
    ]}
  ]
}
